Tests used:
[1] = system: CD4 and CD8 T cell population in tumor-bearing mouse blood; assay: Flow cytometry of T cell populations and immune checkpoint molecules in tumor-bearing mouse blood; conditions: mouse blood at end of study, 10 mg/kg/day
[2] = incubated with cells, LC-MS over time
[3] = system: LLC tumors in mouse lungs; assay: Orthotopic LLC cell allograft growth in mouse lung; assay type: in vivo
Procedure: For in vivo studies, the effect of CTLA-4ip peptide on the tumor growth in the mouse lung was evaluated using an orthotropic LLC cell allograft model. After 5 days of LLC cell inoculation, all groups of mice were pretreated with JAWS II murine dendritic cells primed with irradiated LLC cells. […] Twenty-three days after the LLC cell inoculation, mice were sacrificed and tumor burdens were evaluated by microscopic and macroscopic observation.

[4] = system: CTLA-4 expression in NK cells; assay: CTLA-4 expression in primary cultured NK cells; assay type: cell-based, mouse
Procedure: Natural Killer (NK) calls were isolated from C57BL/6 mouse spleen using MagniSort™ Mouse NK cell Enrichment Kit (ThermoFisher Scientific, Waltham, MA). The cells were seeded into 12-well plate and treated with 12.5 ng/ml recombinant mouse IL-2 for an induction of CTLA-4 protein expression; the expression of the CTLA-4 protein in cell surface of immune cells is very low under physiological conditions. After 24 hours, the cells were treated with 1, 10, and 20 μM CTLA-4ip. Anti-CTLA-4 antibody (aCTLA-4, 1 and 5 μg/ml) was used as a positive control treatment. PBS was used as a negative control. At 48 and 72 hours after various agent treatments, CTLA-4 expression was evaluated by Flow cytometry. The surface CTLA-4 on the cells were first stained with BV421-conjugated anti-CTLA-4 antibodies (UC10-4B9 clone). The cells were fixed with Fixation Buffer (BioLegend, San Diego, CA), permeabilizated by Intracellular Staining Permeabilization Wash Buffer (BioLegend), and stained with APC-conjugated anti-CTLA-4 antibodies (UC10-4B9 clone).

Question: For `CC[C@H](C)[C@@H]1NC(=O)[C@H](CCC(=O)O)NC(=O)[C@H](CO)NC(=O)[C@H](Cc2ccc(O)cc2)NC(=O)[C@H](CCCNC(=N)N)NC(=O)[C@H](CCCCN)NC(=O)[C@H](C)NC(=O)[C@H](C(C)C)NC(=O)[C@H](Cc2c[nH]c3ccccc23)NC(=O)CNC(=O)[C@H]([C@@H](C)O)NC(=O)[C@@H]2CCCN2C(=O)[C@H]([C@@H](C)O)NC(=O)[C@H](CC(C)C)NC(=O)[C@H](C(C)C)NC(=O)[C@H]([C@@H](C)O)NC(=O)[C@H](CC(=O)O)NC1=O` [R10], which “CTLA4 expression in CD8+ IFNγ+ activated cytotoxic T cell (MFI)” value [1] is on record?
Answer: Its value is 9.71±10.79.

Question: And the “CTLA4 expression in Treg (MFI)” value [1]?
Answer: The value was 863.02±269.34.

Question: What about the “Treg population (CD4+ FoxP3+)” value [1] of the same molecule?
Answer: The value was 0.50±0.74%.

Question: And the “cytotoxic T lymphocyte (CTL) population (CD8+ IFNγ+)” value [1]?
Answer: The value was 5.33±1.85%.

Question: And the “cellular uptake” value [2]?
Answer: Its value is “taken up by the cells”.

Question: And the “resistance to enzymatic degradation in cells” value [2]?
Answer: The value was “resistant to enzymatic degradation”.

Question: What about the “mice with tumor nodules (macroscopic observation)” value ([3]; 10 mg/kg/day IP, 23 days after LLC inoculation, after JAWS-irrLLC) of the same molecule?
Answer: The value was 4 out of 5.

Question: And the “Ave. number of tumor nodules” value ([3]; 10 mg/kg/day IP, 23 days after LLC inoculation, after JAWS-irrLLC, mean±SD)?
Answer: Its value is 1.60±0.80.

Question: What about the “number and size of tumor nodules in the lungs compared to PBS treated control” value ([3]; 10 mg/kg/day, IP, every other day, 4 times) of the same molecule?
Answer: The value was “markedly smaller”.

Question: And the “change of CTLA-4 expression in cell surface” value ([4]; NK cells from the spleen, within 72 hour incubation)?
Answer: The value was 4.3%.

Question: What about the “surface and intracellular expression of CTLA-4” value ([4]; additional experiments out to day 5 and day 7) of the same molecule?
Answer: The value was “remaining unchanged”.

Question: What about the “cytotoxicity of NK cells for H1N1-infected CT26 cells” value (H1N1 infected CT26 cells) of the same molecule?
Answer: Its value is “better than the positive control”.
